Laboratory results: PubChem BioAssay AID493246 (Drosophila RNAi Screening Center, 2011)
The screen tested about 21,000 reagents; below is a random part of those with a known target gene and a result. Over the whole deposit, 429 (2%) were called active. 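Values are raw and not normalised between plates; calls rest on per-plate z-scores that were not deposited.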 The numbers tell different reagents against one gene apart. A plus sign joins genes that one reagent is predicted to hit. The record does not give: the amount of reagent, the time to read-out.

- Purpose: 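Genes fly cells need to grow and stay alive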 (primary screen)
- Cells: Drosophila Kc and S2R+ cells
- Reagents: long dsRNA against Drosophila genes
- Read-out: 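Cell number per well after knock-down, printed as raw plate values; calls were based on per-plate z-scores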
- Reading the numbers: Kc cell number and S2R+ cell number: higher = more cells remaining
- Rule for the call: 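Active when the per-plate z-score of cell number is 3 or more in the direction of fewer cells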

gene knocked down	dsRNA no.	Kc cell number, rep 1	Kc cell number, rep 2	S2R+ cell number, rep 1	S2R+ cell number, rep 2	outcome
slmo + CG34179	1	1.30e6	1.45e6	4.34e5	6.92e5	inactive
Grx1t	1	1.64e6	1.69e6	1.23e6	3.00e5	inactive
Peritrophin-15b	1	1.64e6	1.67e6	1.25e6	1.40e6	inactive
Tapdelta	1	1.29e6	1.42e6	8.85e5	9.91e5	inactive
wap	1	1.52e6	1.59e6	1.03e6	1.08e6	inactive
CG1983	1	1.43e6	1.42e6	9.82e5	1.11e6	inactive
CG3281	1	1.85e6	1.91e6	1.24e6	1.38e6	inactive
Ir92a	1	1.41e6	1.42e6	1.04e6	1.11e6	inactive
spag4	1	1.61e6	1.66e6	1.35e6	1.59e6	inactive
Slik	1	1.33e6	1.38e6	1.11e6	1.12e6	inactive
Prim2	1	1.55e6	1.62e6	1.03e6	1.11e6	inactive
dpr10	1	1.35e6	1.44e6	1.12e6	1.22e6	inactive
dpr10	2	1.53e6	1.50e6	1.21e6	1.31e6	inactive
dpr10	3	1.27e6	1.31e6	1.27e6	1.29e6	inactive
dpr10	4	1.42e6	1.54e6	1.34e6	1.37e6	inactive
Tcs4	1	1.56e6	1.60e6	1.07e6	1.22e6	inactive
Lsp1beta	1	1.25e6	1.30e6	8.36e5	9.70e5	inactive
RhoGEF2	1	1.38e6	1.44e6	1.40e6	1.44e6	inactive
CG13041	1	1.57e6	1.58e6	1.24e6	1.42e6	inactive
Herp	1	1.34e6	1.35e6	5.30e5	7.40e5	inactive

Continued (8 carried over from the part before).
gene knocked down	dsRNA no.	Kc cell number, rep 1	Kc cell number, rep 2	S2R+ cell number, rep 1	S2R+ cell number, rep 2	outcome
dpr10	2	1.53e6	1.50e6	1.21e6	1.31e6	inactive
dpr10	3	1.27e6	1.31e6	1.27e6	1.29e6	inactive
dpr10	4	1.42e6	1.54e6	1.34e6	1.37e6	inactive
Tcs4	1	1.56e6	1.60e6	1.07e6	1.22e6	inactive
Lsp1beta	1	1.25e6	1.30e6	8.36e5	9.70e5	inactive
RhoGEF2	1	1.38e6	1.44e6	1.40e6	1.44e6	inactive
CG13041	1	1.57e6	1.58e6	1.24e6	1.42e6	inactive
Herp	1	1.34e6	1.35e6	5.30e5	7.40e5	inactive
ND-18	1	1.50e6	1.51e6	8.50e5	9.43e5	inactive
CG16959	1	1.40e6	1.45e6	1.28e6	1.26e6	inactive
Frl	1	1.39e6	1.43e6	1.04e6	1.28e6	inactive
Frl	2	1.50e6	1.56e6	1.26e6	1.45e6	inactive
Frl	3	1.41e6	1.45e6	9.78e5	1.16e6	inactive
CG13784	1	1.48e6	1.53e6	1.02e6	1.15e6	inactive
CG13784	2	1.50e6	1.44e6	4.74e5	7.42e5	inactive
Pfdn1	1	1.56e6	1.48e6	1.26e6	1.40e6	inactive
CG42531	1	1.59e6	1.56e6	1.02e6	1.27e6	inactive
CG11454	1	1.29e6	1.26e6	5.45e5	5.93e5	inactive
ric8b + ric8a	1	1.51e6	1.52e6	1.03e6	1.14e6	inactive
Hph	1	1.71e6	1.75e6	1.18e6	1.28e6	inactive
Hph	2	1.73e6	1.85e6	1.32e6	1.49e6	inactive
CR12628 + Mgstl	1	1.40e6	1.40e6	1.09e6	1.16e6	inactive
CR12628 + Mgstl	2	1.80e6	1.88e6	1.21e6	1.35e6	inactive
holn1	1	1.37e6	1.44e6	1.23e6	1.34e6	inactive
CG34297	1	1.42e6	1.53e6	1.05e6	1.19e6	inactive
CG10591	1	1.39e6	1.48e6	1.26e6	1.00e6	inactive
Prosbeta3	1	1.10e6	1.20e6	6.06e5	6.94e5	active
ss	1	1.23e6	1.29e6	1.20e6	1.38e6	inactive
Eip63F-1	1	1.48e6	1.45e6	1.01e6	1.14e6	inactive
Eip63F-1	2	1.67e6	1.66e6	1.06e6	1.51e6	inactive
CG4991	1	1.53e6	1.63e6	1.02e6	1.17e6	inactive
VhaPPA1-2	1	1.34e6	1.59e6	1.06e6	1.11e6	inactive
Tsp3A	1	1.43e6	1.49e6	1.03e6	1.20e6	inactive
Atf6	1	1.53e6	1.62e6	1.02e6	1.15e6	inactive
Atf6	2	1.55e6	1.40e6	1.30e6	1.27e6	inactive
dmt	1	1.55e6	1.53e6	8.62e5	9.80e5	inactive
CG13282	1	1.55e6	1.61e6	1.26e6	1.34e6	inactive
Mco1	1	1.45e6	1.55e6	1.19e6	1.35e6	inactive
Cyp313a1	1	1.41e6	1.38e6	1.12e6	1.26e6	inactive
CG32121	1	1.47e6	1.64e6	1.17e6	1.33e6	inactive
wisp	1	6.63e5		7.94e5		inactive
Mst85C	1	1.68e6	1.91e6	1.42e6	1.66e6	inactive
Prx2	1	1.57e6	1.53e6	1.09e6	1.18e6	inactive
CG16976 (retired record)	1	1.38e6	1.29e6	1.04e6	1.21e6	inactive
rempA	1	1.45e6	1.50e6	1.04e6	1.21e6	inactive
CG32409	1	1.45e6	1.56e6	9.80e5	1.10e6	inactive
GABA-B-R3	1	1.56e6	1.56e6	1.07e6	1.21e6	inactive
